This is one part of the list.
Each target was assayed with COC(=O)[C@H](CCSC)NC(=O)C1=C(C=C(C=C1)NC[C@H](CS)N)C2=CC=CC=C2 (assay: log2 fold change, soluble protein after heating vs DMSO (PISA); higher = thermal stabilisation; K562 lysate, 10 uM; active = over 0.2 and 3.5 SD of the protein, either way, in both replicates (recomputed)).
Procedure, shortened: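 Values give the log-two fold change in thermal stability against solvent controls, from duplicates. Crude K562 extract at 1 mg/mL protein, made by dounce homogenisation in PBS pH 7.4 with 1 mM MgCl2, was treated with 10 μM compound for 30 min. After 3 min heating across 48°C-58°C, aliquots were pooled, adjusted to 0.5% NP-40 at 4°C and centrifuged at 21,000xg for 90 min. The supernatant was measured by TMTpro 16plex LC-MS/MS with channel sums equalised.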

Amino acid sequences for entries named in this document (tags omitted). A change or cut given only in a name is not applied to a line headed by its entry.
UniProt Q96QB1: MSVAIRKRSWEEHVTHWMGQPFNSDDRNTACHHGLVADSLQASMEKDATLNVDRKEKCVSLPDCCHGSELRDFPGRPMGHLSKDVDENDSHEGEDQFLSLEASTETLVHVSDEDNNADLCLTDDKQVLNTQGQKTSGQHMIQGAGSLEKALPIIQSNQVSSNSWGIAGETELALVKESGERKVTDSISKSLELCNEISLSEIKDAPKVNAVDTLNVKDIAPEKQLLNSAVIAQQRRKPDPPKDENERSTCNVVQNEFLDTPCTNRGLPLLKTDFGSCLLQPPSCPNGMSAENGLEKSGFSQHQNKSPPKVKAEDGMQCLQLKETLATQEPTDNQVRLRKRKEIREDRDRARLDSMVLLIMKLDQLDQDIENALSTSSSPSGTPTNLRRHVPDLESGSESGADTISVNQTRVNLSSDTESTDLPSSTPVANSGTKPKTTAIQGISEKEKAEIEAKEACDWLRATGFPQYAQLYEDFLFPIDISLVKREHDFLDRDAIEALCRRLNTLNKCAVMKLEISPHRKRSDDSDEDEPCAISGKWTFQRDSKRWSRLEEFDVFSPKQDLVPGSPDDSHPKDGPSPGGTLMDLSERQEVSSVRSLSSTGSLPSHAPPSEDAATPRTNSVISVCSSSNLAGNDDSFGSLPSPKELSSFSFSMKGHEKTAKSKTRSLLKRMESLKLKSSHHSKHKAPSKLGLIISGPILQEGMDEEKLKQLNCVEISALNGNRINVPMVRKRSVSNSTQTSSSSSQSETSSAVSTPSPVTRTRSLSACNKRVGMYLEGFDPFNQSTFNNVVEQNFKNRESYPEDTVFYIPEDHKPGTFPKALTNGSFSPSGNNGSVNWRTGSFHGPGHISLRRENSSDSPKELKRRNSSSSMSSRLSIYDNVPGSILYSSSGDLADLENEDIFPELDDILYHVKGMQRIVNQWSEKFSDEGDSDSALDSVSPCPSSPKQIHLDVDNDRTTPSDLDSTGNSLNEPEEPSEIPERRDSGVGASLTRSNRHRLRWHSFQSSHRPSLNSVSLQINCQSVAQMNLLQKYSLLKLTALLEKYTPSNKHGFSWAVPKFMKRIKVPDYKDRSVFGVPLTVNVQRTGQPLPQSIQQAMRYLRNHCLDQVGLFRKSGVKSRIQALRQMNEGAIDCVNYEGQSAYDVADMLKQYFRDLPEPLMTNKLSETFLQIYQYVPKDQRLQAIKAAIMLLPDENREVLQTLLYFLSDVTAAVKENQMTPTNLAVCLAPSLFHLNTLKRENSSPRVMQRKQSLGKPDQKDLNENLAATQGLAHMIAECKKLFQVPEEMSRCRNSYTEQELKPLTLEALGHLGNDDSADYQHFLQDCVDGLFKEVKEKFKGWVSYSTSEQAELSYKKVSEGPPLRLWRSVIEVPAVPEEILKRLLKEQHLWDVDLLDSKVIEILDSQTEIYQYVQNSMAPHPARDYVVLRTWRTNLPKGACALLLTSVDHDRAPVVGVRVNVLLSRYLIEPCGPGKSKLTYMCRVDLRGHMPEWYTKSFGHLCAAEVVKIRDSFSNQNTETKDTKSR
UniProt Q6Y2X3: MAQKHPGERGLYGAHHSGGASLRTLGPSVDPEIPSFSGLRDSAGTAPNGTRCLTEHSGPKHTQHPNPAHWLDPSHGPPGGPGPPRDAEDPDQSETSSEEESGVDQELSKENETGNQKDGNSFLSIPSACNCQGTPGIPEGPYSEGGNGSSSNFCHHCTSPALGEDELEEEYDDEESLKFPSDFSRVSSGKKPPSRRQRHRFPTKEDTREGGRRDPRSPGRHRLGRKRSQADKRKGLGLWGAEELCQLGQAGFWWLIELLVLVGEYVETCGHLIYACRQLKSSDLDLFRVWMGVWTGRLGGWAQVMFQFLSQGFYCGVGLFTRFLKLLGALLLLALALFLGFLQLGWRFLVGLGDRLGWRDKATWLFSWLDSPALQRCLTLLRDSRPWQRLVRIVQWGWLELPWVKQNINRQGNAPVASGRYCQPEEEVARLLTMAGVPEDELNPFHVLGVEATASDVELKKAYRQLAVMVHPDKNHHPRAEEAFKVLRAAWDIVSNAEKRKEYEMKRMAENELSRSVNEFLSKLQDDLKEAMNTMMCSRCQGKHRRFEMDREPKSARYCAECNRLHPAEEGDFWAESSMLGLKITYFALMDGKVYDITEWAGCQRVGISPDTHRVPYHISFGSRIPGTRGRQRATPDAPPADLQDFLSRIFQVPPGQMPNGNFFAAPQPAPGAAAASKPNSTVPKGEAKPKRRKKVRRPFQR
UniProt Q8TEK3: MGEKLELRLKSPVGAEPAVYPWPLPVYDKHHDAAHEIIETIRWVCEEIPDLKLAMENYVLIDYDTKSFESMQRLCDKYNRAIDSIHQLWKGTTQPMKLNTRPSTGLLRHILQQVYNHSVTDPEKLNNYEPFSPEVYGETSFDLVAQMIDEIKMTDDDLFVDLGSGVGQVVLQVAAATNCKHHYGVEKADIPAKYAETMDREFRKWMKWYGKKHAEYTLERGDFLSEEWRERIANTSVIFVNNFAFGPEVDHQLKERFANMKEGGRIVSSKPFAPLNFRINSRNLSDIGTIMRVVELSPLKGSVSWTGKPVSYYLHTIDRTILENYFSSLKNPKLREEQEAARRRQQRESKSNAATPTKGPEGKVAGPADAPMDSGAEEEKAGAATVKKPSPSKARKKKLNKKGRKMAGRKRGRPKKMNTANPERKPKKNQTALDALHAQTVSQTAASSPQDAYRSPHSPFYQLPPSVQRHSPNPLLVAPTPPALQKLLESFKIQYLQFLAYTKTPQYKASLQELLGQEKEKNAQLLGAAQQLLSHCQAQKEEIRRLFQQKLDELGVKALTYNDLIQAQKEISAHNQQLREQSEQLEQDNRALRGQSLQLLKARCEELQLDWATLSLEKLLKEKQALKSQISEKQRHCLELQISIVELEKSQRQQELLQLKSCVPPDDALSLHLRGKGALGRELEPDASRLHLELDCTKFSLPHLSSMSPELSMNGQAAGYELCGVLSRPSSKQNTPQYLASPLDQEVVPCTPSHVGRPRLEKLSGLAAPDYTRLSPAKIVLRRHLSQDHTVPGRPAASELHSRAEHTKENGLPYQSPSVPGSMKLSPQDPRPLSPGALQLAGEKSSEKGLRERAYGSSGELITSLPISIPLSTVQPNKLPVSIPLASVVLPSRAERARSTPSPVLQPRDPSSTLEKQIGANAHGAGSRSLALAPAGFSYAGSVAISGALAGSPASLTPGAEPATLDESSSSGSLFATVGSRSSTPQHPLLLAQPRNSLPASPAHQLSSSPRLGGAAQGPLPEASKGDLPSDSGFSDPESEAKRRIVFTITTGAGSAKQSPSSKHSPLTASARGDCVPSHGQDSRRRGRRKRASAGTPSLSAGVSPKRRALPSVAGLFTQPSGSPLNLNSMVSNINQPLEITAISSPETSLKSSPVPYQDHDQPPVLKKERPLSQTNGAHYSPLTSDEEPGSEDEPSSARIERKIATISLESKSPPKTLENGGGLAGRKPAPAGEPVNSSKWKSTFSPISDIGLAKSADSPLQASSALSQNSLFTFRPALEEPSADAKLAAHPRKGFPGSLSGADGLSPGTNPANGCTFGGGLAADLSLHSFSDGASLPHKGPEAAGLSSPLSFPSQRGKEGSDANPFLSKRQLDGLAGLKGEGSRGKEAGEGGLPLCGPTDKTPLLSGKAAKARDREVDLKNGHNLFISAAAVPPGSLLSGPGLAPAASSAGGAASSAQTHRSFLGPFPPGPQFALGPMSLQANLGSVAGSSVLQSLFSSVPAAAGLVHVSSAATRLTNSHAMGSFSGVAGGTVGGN
UniProt Q5JWR5: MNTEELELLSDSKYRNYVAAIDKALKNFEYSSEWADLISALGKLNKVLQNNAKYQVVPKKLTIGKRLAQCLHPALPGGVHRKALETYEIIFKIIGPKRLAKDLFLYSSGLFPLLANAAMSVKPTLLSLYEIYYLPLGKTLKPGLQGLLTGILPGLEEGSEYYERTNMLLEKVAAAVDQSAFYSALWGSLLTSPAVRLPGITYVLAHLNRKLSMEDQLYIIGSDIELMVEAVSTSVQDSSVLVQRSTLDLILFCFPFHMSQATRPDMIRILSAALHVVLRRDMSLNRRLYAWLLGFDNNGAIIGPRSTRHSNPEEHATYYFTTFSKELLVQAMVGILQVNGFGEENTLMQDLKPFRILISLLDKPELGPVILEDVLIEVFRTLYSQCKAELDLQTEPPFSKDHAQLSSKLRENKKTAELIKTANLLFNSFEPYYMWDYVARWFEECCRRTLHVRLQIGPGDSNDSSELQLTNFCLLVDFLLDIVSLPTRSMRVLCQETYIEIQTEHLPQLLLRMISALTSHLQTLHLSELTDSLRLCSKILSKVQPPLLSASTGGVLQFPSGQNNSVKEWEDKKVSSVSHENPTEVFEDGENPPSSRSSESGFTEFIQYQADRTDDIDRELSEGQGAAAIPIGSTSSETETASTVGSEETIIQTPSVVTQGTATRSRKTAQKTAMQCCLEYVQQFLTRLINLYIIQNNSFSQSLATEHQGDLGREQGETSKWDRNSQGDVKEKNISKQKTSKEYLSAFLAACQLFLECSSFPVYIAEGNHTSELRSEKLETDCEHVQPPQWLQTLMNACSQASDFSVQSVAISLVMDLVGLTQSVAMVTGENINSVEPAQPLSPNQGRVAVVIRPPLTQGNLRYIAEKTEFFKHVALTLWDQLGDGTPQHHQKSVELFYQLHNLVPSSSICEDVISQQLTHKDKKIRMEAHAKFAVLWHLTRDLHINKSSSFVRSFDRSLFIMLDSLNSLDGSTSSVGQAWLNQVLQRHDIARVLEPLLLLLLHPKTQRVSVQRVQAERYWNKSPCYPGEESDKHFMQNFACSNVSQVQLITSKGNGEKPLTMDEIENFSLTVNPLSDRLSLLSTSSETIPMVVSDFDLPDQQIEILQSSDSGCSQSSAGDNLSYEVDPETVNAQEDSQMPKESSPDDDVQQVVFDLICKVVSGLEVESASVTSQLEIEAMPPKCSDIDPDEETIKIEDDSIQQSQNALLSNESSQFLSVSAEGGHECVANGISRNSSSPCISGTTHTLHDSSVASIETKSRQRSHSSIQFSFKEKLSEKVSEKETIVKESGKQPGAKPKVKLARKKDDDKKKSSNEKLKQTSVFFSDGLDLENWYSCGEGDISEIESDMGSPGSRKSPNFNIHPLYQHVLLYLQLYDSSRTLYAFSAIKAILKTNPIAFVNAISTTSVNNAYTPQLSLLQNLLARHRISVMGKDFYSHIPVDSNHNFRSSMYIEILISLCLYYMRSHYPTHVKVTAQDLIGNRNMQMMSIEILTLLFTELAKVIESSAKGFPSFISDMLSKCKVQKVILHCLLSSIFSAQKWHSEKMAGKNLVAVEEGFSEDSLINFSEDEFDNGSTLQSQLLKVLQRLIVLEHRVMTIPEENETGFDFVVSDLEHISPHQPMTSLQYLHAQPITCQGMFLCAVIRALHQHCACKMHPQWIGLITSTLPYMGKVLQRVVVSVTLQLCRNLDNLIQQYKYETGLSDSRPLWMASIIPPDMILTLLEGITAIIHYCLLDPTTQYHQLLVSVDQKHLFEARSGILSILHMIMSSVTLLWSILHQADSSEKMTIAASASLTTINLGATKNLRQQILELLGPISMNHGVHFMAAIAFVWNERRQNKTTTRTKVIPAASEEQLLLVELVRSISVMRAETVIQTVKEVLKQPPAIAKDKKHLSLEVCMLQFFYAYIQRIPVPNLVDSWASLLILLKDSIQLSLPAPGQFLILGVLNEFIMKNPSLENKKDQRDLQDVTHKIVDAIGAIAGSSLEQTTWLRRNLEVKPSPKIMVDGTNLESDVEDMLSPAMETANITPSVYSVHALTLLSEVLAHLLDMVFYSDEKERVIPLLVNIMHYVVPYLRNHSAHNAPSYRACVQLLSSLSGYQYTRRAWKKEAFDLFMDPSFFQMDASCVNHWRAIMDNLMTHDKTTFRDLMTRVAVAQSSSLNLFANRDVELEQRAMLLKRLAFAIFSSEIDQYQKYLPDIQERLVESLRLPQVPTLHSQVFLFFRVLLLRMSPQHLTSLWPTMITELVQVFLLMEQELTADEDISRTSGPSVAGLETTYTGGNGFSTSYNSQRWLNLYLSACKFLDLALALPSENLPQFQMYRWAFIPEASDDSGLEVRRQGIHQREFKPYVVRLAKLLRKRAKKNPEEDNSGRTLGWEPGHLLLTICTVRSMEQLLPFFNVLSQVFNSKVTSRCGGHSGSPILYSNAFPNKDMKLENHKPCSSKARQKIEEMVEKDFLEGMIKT
UniProt P25686: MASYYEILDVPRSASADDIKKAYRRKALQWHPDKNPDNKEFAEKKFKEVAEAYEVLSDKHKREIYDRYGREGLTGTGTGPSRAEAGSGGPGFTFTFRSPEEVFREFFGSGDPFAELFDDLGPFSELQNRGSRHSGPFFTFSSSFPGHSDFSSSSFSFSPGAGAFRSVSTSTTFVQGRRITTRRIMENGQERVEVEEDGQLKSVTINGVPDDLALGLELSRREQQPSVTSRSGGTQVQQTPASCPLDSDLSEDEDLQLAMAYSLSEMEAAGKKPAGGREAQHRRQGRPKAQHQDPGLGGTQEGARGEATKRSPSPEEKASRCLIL

log2 fold change, inactive:
DMTN isoform 2 (UniProt Q08495) 0.008, DNPEP (UniProt B9ZVU2) -0.027, DLC1 (UniProt Q96QB1) 0.052, DNTTIP2 (UniProt Q5QJE6) -0.126, DIPK1A (UniProt Q5T7M9) -0.078, DNAJC14 (UniProt Q6Y2X3) -0.237, DOT1L isoform 1 (UniProt Q8TEK3) -0.12, DNMT3B (UniProt Q9UBC3) -0.174, DOP1A (UniProt Q5JWR5) -0.039, DNTTIP1 (UniProt Q9H147) 0.011, DNAJA3 isoform 2 (UniProt Q96EY1) 0.079, DMBT1 isoform 6 (UniProt Q9UGM3) 0.629, DNPEP (UniProt C9JBE1) 0.04, DNAJB2 (UniProt P25686) -0.009
